Data as given in PubChem BioAssay AID1259308 (NCATS, 2017).

- Purpose: 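Candidate targets for better recombinant protein yield in mammalian cells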 (primary screen)
- Cell system: human HEK293 embryonic kidney cells stably expressing firefly luciferase (HEK-CMV-Luc2-Hygro)
- Reagents: single siRNA against human genes, 0.8 pmol siRNA per well
- Time to read-out: 72 h
- Detection: 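Luciferase light (ONE-Glo) measured on one replicate plate set and viability (CellTiter-Glo) on the other, scaled to a negative control siRNA, with robust z-scores and luciferase per cell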
- Scale: total luciferase, z-score and total luciferase, % of control: higher = more reporter protein produced; luciferase per cell, z-score: higher = more reporter output per viable cell; viable cells, % of control: higher = more viable cells
- Hit rule: 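An siRNA counts as active if its total luciferase robust z-score exceeds 3; genes with two or more such siRNAs out of three were retested with fresh siRNAs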
- Meaning of the calls: active = raised luciferase; inactive = no rise
Shown is an unselected part of about 59,000 reagents tested. Over the whole deposit, about 1,510 (2.6%) are marked active. 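Calls use total luciferase alone and ignore viability, so some active siRNAs may act by altering cell number.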 Reagents against one gene are numbered here.

no.	gene knocked down	siRNA no.	total luciferase, z-score	total luciferase, % of control	luciferase per cell, z-score	viable cells, % of control	outcome
1	TFDP1	1	-0.0751	80.4	0.0669	88.3	inactive
2	TFDP1	2	-0.888	64.2	-0.689	86	inactive
3	TFDP1	3	-0.387	74.2	-0.872	104	inactive
4	H3Y2	1	1.28	107	2.55	61.4	inactive
5	H3Y2	2	-1.94	43.3	-1.36	69.2	inactive
6	H3Y2	3	0.168	85.2	-0.4	106	inactive
7	DOK2	1	0.329	88.4	-0.704	119	inactive
8	DOK2	2	-0.232	77.3	0.496	75.8	inactive
9	DOK2	3	-0.201	77.9	0.243	81.6	inactive
10	METTL25	1	2.03	122	1.09	103	inactive
11	METTL25	2	-0.66	68.8	-1.23	106	inactive
12	METTL25	3	0.39	89.6	-0.209	106	inactive
13	ADARB2	1	0.693	95.7	-0.00127	107	inactive
14	ADARB2	2	1.22	106	1.86	72.7	inactive
15	ADARB2	3	-0.836	65.3	-0.483	82.8	inactive
16	LINC02912	1	0.454	90.9	-0.0859	104	inactive
17	LINC02912	2	0.11	84.1	-0.0594	95.4	inactive
18	LINC02912	3	-0.489	72.2	-0.786	99.2	inactive
19	ZC3H12C	1	-1.53	51.5	1.31	40.7	inactive
20	ZC3H12C	2	0.227	86.4	-0.108	99.3	inactive
21	ZC3H12C	3	2.07	123	1.15	102	inactive
22	ATP2A1	1	1.13	104	0.546	101	inactive
23	ATP2A1	2	-0.763	66.7	-1.34	106	inactive
24	ATP2A1	3	1.93	120	0.803	109	inactive
25	PIP5K1B	1	-1.01	61.7	-1.01	89.9	inactive
26	PIP5K1B	2	-0.184	78.2	0.315	80.5	inactive
27	PIP5K1B	3	-0.85	65	-1.58	110	inactive
28	POLR2J2	1	-1.25	57.1	-0.595	74.6	inactive
29	POLR2J2	2	-0.397	74	-0.507	94.5	inactive
30	POLR2J2	3	-0.705	67.9	-0.817	94	inactive
31	ADH1B	1	0.936	100	0.695	93.5	inactive
32	ADH1B	2	-0.787	66.2	-0.849	92.6	inactive
33	ADH1B	3	-0.131	79.3	0.384	80.1	inactive
34	TPD52L3	1	-0.142	79.1	-0.153	92	inactive
35	TPD52L3	2	0.989	102	1.22	82.4	inactive
36	TPD52L3	3	0.0016	81.9	0.618	77.8	inactive
37	KLHL10	1	-0.627	69.4	-0.351	85.1	inactive
38	KLHL10	2	-0.445	73	-0.544	94.2	inactive
39	KLHL10	3	-0.277	76.4	1.64	55.4	inactive
